The text below walks through data of PMC13022455, “Oligomerization-dependent and synergistic regulation of Cdc42 GTPase cycling by a GEF and a GAP” (EMBO Reports, 2026).

No constants are given. Whether binding was seen depends on the method and setting.

The assay has as its target T1, Cdc24 (S. cerevisiae), P11433.
T1 chain: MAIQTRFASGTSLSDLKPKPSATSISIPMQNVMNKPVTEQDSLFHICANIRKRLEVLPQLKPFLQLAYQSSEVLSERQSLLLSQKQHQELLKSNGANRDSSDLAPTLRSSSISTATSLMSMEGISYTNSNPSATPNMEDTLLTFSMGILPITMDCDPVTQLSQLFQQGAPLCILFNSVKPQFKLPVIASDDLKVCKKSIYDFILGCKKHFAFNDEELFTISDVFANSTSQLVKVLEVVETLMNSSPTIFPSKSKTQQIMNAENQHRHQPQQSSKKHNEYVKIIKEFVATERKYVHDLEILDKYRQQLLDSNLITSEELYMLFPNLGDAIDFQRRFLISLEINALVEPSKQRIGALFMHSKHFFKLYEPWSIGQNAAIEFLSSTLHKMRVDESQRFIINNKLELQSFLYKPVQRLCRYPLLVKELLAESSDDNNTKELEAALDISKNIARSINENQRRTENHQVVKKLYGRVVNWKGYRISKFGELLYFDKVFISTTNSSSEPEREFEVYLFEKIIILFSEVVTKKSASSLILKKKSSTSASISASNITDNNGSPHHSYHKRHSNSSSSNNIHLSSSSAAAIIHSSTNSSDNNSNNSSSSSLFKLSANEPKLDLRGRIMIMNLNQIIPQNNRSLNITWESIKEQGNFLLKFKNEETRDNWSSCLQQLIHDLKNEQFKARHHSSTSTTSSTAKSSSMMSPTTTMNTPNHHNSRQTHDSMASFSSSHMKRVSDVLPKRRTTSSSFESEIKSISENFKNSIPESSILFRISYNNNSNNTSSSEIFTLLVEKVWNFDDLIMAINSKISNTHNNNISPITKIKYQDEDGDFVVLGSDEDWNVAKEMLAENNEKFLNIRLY
Briefly: SEC-MALS; single purified proteins; Superdex 200 Increase 10/300 GL, SEC buffer (50 mM Tris-HCl pH 7.5, 100 mM NaCl, 10 mM MgCl2, 1 mM 2-mercaptoethanol) with 0.02% sodium azide, 0.5 mL/min; samples 5.7–7.1 µM; fractions analysed by SDS-PAGE and anti-His western blot; both purified. The settings on record: remark: other sources report otherwise. A general note: Size exclusion chromatography separates by hydrodynamic size, large species first.

B1: Cdc24, P11433 1-854 (enzyme)
chain: T1 chain
In the case of B1, the binding entry is recorded as “no binding (tested: 5.7–7.1 µM)”.
